Source: the supplement of paper PMC6411743
± gives the standard deviation of the averaged measurements. Some of the results follow.

Amino acid sequences for entries named in this document (tags omitted). A change or cut given only in a name is not applied to a line headed by its entry.
UniProt Q8N6H7: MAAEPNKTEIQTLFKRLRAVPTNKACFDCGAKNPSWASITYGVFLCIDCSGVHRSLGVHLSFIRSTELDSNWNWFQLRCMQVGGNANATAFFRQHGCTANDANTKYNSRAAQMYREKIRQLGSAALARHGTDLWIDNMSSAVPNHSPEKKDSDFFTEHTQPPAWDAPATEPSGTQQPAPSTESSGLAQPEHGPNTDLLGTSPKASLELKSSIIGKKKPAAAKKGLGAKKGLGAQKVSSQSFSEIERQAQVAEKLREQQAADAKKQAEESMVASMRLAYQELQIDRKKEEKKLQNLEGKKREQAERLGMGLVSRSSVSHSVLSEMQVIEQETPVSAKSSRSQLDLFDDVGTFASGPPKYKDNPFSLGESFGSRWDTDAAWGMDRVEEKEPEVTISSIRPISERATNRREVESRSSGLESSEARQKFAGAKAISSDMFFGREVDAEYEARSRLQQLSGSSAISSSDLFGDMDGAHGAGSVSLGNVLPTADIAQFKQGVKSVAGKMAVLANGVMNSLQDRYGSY
UniProt O15155: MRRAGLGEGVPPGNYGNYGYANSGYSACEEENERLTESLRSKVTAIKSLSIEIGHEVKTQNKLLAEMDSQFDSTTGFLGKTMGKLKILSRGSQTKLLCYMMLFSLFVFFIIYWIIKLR
UniProt Q9P246, whole entry: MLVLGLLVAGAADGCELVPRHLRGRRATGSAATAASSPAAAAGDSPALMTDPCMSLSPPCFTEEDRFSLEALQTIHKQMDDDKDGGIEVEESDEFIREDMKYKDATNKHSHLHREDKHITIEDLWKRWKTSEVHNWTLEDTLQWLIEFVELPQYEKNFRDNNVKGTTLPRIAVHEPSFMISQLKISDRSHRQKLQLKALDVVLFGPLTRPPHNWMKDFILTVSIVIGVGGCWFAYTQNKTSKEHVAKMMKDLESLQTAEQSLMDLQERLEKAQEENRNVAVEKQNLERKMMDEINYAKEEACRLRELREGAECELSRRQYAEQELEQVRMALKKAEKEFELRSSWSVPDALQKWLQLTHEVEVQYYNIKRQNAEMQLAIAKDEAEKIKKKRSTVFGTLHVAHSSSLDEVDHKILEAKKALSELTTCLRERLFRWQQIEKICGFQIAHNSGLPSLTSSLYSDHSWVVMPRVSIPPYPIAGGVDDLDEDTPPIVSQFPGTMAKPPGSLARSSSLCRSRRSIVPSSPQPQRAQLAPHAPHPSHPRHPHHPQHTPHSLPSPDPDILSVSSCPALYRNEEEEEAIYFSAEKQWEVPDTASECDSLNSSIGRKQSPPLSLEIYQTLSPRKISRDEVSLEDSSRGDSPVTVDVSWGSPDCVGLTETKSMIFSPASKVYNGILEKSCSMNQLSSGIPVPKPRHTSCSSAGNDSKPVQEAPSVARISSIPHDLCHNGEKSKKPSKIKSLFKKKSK
UniProt P57678: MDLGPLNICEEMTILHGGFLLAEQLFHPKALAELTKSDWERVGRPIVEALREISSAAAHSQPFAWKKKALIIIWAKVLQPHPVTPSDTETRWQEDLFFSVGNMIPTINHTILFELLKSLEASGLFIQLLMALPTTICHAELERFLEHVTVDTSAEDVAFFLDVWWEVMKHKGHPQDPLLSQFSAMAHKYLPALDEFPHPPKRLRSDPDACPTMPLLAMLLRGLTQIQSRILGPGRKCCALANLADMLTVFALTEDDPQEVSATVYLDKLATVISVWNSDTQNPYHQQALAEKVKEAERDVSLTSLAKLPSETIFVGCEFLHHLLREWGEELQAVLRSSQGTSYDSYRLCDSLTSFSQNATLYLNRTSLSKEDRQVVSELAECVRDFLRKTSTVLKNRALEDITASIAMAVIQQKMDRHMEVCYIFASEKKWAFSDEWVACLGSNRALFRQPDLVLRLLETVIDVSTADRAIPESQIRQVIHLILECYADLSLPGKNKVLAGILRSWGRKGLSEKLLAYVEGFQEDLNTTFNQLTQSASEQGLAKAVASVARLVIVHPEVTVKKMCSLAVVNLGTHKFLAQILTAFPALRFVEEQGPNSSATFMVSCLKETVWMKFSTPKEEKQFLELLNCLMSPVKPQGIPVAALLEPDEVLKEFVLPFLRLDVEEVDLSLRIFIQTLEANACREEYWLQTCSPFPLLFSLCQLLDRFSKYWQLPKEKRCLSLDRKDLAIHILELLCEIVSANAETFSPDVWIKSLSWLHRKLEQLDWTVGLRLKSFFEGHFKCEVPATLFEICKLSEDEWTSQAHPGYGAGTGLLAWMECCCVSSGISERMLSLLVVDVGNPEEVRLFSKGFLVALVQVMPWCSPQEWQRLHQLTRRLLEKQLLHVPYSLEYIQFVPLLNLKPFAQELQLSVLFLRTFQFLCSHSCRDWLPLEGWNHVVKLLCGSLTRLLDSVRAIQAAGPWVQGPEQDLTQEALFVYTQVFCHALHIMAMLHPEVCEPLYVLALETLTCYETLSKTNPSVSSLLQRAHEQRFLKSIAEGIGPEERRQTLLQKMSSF
UniProt Q9Y3E5: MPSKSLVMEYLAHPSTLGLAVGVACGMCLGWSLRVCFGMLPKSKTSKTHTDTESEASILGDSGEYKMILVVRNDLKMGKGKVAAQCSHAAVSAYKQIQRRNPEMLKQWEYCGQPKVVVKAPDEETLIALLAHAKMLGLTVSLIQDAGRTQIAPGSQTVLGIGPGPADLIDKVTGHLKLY
UniProt Q13838, whole entry: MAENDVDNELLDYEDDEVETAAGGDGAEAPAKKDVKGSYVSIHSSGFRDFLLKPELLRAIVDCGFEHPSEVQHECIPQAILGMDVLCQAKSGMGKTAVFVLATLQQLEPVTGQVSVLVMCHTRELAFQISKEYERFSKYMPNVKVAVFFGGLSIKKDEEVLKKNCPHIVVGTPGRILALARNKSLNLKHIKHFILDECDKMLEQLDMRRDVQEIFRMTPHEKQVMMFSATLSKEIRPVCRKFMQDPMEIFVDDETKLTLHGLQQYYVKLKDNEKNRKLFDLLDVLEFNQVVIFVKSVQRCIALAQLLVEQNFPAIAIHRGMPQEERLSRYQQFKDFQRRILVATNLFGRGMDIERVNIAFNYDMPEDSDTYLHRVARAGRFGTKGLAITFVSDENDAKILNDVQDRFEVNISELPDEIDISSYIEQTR
UniProt P20674, whole entry: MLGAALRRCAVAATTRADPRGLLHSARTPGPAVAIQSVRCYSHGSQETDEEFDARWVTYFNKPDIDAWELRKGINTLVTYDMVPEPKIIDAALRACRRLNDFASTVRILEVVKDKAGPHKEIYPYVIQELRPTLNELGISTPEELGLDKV
UniProt Q04726: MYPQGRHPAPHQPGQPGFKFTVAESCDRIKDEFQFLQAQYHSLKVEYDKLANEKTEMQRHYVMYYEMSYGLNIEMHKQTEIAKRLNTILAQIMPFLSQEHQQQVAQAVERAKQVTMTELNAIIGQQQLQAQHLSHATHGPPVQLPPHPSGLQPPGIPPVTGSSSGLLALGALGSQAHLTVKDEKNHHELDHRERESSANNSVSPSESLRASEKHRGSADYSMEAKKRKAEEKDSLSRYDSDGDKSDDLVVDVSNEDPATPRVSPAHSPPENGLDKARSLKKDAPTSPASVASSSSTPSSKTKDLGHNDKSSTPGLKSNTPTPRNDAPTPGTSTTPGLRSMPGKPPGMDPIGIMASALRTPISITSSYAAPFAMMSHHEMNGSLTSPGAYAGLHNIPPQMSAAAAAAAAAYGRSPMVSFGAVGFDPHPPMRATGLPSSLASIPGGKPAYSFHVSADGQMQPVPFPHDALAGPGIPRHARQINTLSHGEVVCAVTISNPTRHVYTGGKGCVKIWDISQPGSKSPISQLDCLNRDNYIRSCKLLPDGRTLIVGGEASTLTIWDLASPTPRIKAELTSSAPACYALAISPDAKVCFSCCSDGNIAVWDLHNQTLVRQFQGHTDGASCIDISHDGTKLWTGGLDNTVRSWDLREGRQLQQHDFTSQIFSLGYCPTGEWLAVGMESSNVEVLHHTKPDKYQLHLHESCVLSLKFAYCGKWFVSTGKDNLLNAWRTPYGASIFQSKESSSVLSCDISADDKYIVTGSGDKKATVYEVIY
UniProt P49916: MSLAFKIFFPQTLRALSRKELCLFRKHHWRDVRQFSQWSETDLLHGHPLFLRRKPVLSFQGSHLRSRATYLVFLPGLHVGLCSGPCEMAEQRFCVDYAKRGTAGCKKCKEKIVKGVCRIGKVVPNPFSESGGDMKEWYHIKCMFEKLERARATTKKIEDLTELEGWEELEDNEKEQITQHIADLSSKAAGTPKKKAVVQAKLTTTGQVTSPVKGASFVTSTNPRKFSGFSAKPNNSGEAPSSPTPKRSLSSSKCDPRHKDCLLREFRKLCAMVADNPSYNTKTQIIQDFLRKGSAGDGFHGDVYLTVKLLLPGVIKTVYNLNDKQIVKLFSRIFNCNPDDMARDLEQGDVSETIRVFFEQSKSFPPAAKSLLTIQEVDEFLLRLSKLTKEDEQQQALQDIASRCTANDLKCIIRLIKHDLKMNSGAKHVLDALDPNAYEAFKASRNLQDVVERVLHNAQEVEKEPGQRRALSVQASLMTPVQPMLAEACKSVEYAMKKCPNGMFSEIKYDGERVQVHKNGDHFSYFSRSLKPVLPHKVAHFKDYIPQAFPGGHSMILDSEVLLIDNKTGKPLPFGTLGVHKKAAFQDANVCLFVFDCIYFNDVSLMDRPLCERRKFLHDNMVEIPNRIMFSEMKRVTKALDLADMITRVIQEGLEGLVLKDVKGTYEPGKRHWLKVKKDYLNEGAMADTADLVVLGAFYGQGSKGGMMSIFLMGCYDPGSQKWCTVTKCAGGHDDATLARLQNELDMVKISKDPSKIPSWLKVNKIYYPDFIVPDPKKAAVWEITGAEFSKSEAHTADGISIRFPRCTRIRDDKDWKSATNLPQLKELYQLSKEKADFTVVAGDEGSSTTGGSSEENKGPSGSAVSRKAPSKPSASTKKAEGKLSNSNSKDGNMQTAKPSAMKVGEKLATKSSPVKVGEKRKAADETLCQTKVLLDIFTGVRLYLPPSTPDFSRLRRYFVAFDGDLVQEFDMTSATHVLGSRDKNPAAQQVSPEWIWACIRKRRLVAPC
UniProt O43414: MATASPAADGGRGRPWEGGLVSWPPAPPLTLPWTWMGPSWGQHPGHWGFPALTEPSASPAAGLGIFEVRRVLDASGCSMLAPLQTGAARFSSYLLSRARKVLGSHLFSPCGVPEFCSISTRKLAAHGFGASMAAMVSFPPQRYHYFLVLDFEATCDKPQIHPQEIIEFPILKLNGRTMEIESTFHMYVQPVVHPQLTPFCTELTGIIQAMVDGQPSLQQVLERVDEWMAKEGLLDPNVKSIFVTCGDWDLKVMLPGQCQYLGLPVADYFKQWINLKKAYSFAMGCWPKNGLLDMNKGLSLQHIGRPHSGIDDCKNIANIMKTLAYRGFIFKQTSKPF
UniProt Q06323: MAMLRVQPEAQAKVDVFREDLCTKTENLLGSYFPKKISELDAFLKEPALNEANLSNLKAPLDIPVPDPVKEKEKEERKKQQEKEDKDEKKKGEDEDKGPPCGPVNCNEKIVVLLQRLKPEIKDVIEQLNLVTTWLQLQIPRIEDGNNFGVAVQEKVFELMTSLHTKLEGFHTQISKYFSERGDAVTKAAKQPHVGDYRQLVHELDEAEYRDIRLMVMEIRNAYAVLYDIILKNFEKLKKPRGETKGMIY
UniProt Q8WXB1: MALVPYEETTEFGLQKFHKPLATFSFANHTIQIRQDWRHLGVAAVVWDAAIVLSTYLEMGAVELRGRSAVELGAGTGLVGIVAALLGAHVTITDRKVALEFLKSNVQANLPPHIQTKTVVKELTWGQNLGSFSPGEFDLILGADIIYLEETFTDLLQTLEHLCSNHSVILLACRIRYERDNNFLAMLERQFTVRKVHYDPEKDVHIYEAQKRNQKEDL
UniProt P28799: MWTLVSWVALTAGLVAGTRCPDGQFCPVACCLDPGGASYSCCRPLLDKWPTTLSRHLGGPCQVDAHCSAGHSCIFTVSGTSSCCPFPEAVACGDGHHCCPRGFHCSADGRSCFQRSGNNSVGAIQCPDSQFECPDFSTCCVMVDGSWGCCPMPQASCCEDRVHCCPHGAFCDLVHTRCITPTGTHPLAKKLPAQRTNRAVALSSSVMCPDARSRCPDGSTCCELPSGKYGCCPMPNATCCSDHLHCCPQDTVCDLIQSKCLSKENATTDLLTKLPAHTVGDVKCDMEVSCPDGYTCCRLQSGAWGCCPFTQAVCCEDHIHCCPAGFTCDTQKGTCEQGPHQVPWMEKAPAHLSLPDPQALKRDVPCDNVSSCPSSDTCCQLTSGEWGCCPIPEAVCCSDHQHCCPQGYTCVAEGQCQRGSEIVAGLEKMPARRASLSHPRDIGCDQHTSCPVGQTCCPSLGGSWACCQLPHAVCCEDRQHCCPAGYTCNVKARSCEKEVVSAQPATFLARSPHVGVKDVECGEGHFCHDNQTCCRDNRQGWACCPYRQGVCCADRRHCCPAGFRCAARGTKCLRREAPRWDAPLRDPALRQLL

Compound: Nc1nc2c(ncn2[C@@H]2O[C@H](COP(=O)(O)OP(=O)(O)OP(=O)(O)O)[C@@H](O)[C@H]2O)c(=O)[nH]1 [guanosine triphosphate]
Test: NP40-soluble protein abundance relative to vehicle (solubility fold change) (ratio); higher = more soluble protein in presence of GTP
Method in brief: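 Jurkat crude lysate (Dounce-homogenised) was treated with eight concentrations from 0.1 to 10 mM for 10 min at room temperature, then 3 min at 37 °C. It was solubilised with 0.8% NP40 and benzonase (60 min, 4 °C) and ultracentrifuged, and the supernatant was TMT-labelled for LC-MS/MS. Intensities were vsn-normalised, and the value is the fold change against the NP40-processed vehicle per replicate, from three independent experiments.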

Row | Target | NP40-soluble protein abundance (concentration: 0.1mM) | NP40-soluble protein abundance (concentration: 0.5mM) | NP40-soluble protein abundance (concentration: 1mM) | NP40-soluble protein abundance (concentration: 2mM) | NP40-soluble protein abundance (concentration: 4mM) | NP40-soluble protein abundance (concentration: 6mM) | NP40-soluble protein abundance (concentration: 8mM) | NP40-soluble protein abundance (concentration: 10mM)
1 | G5E9L0 and related entries (UniProt Q8N6H7) | 0.96 ± 0.099 | 0.923 ± 0.069 | 0.96 ± 0.097 | 0.89 ± 0.091 | 0.919 ± 0.12 | 0.89 ± 0.094 | 0.935 ± 0.097 | 0.897 ± 0.091
2 | H7C1N3 and related entries (UniProt O15155) | 0.982 ± 0.089 | 0.946 ± 0.081 | 1.04 ± 0.15 | 0.967 ± 0.063 | 0.971 ± 0.044 | 0.921 ± 0.036 | 0.874 ± 0.048 | 0.94 ± 0.051
3 | H3BMU3 and related entries (UniProt O60268) | 0.928 ± 0.032 | 0.988 ± 0.17 | 1.01 ± 0.18 | 0.95 ± 0.15 | 0.961 ± 0.14 | 0.918 ± 0.2 | 0.919 ± 0.067 | 0.998 ± 0.096
4 | H0Y860 and related entries (UniProt Q9P246) | 0.977 ± 0.021 | 0.952 ± 0.015 | 1.06 ± 0.096 | 1.06 ± 0.06 | 1.13 ± 0.26 | 1.034 ± 0.0099 | 1.12 ± 0.12 | 0.958 ± 0.07
5 | H0YJ34 and related entries (UniProt Q96AC1) | 1.05 ± 0.081 | 0.992 ± 0.056 | 0.925 ± 0.023 | 0.954 ± 0.093 | 0.932 ± 0.061 | 0.929 ± 0.09 | 0.905 ± 0.045 | 0.887 ± 0.095
6 | I3L2C7 and related entries (UniProt P57678) | 1.05 ± 0.18 | 1.17 ± 0.24 | 1.14 ± 0.22 | 1.26 ± 0.4 | 1.25 ± 0.31 | 1.26 ± 0.38 | 1.26 ± 0.35 | 1.17 ± 0.32
7 | H7C5E4 and related entries (UniProt Q8IZH2) | 1.03 ± 0.034 | 1.07 ± 0.048 | 1.05 ± 0.039 | 1.07 ± 0.05 | 1.12 ± 0.067 | 1.1 ± 0.065 | 1.15 ± 0.14 | 1.13 ± 0.078
8 | H3BTA2 and related entries (UniProt P60510) | 1.05 ± 0.079 | 1.05 ± 0.14 | 0.988 ± 0.04 | 1.03 ± 0.1 | 1.07 ± 0.11 | 0.996 ± 0.1 | 0.965 ± 0.017 | 0.92 ± 0.011
9 | H7C5R8 and related entries (UniProt Q460N5) | 1.03 ± 0.015 | 1.01 ± 0.024 | 1.033 ± 0.0096 | 1.01 ± 0.054 | 0.976 ± 0.031 | 0.977 ± 0.013 | 0.949 ± 0.014 | 0.947 ± 0.027
10 | H0Y5B4 and related entries (UniProt P83881) | 0.995 ± 0.048 | 1.02 ± 0.057 | 1.05 ± 0.075 | 1.02 ± 0.015 | 0.9783 ± 0.0024 | 0.949 ± 0.041 | 0.776 ± 0.16 | 1.03 ± 0.047
11 | H0YK48 and related entries (UniProt P09493) | 0.878 ± 0.19 | 0.762 ± 0.021 | 1.45 ± 0.24 | 1.2 ± 0.2 | 1.28 ± 0.066 | 1.21 ± 0.11 | 1.1 ± 0.019 | 1.37 ± 0.26
12 | I3L0H8 and related entries (UniProt Q9NUU7) | 0.998 ± 0.056 | 1 ± 0.03 | 0.981 ± 0.048 | 0.936 ± 0.077 | 0.94 ± 0.075 | 0.926 ± 0.061 | 0.949 ± 0.075 | 0.902 ± 0.072
13 | H0YDG7 and related entries (UniProt P30154) | 1.02 ± 0.056 | 0.998 ± 0.018 | 1.01 ± 0.041 | 0.972 ± 0.034 | 0.991 ± 0.065 | 0.942 ± 0.034 | 0.953 ± 0.085 | 0.946 ± 0.031
14 | J3KQ48 and related entries (UniProt Q9Y3E5) | 0.982 ± 0.082 | 0.957 ± 0.059 | 0.947 ± 0.085 | 0.941 ± 0.049 | 0.991 ± 0.12 | 0.915 ± 0.075 | 0.908 ± 0.07 | 0.966 ± 0.12
15 | H0Y400 and related entries (UniProt Q13838) | 1.01 ± 0.031 | 0.983 ± 0.04 | 0.884 ± 0.056 | 0.923 ± 0.082 | 0.949 ± 0.076 | 0.977 ± 0.064 | 0.954 ± 0.08 | 0.954 ± 0.091
16 | H7C0D5 and related entries (UniProt Q9BSR8) | 1.02 ± 0.04 | 0.948 ± 0.1 | 0.924 ± 0.07 | 0.878 ± 0.083 | 0.984 ± 0.089 | 0.874 ± 0.049 | 0.951 ± 0.028 | 0.807 ± 0.043
17 | H3BNX8 and related entries (UniProt P20674) | 1 ± 0.12 | 0.85 ± 0.084 | 1.16 ± 0.16 | 1.06 ± 0.1 | 1.14 ± 0.089 | 1.05 ± 0.09 | 1.14 ± 0.16 | 1.11 ± 0.21
18 | H0Y360 and related entries (UniProt Q01433) | 1.04 ± 0.035 | 1.03 ± 0.029 | 0.929 ± 0.024 | 0.94 ± 0.061 | 0.932 ± 0.046 | 0.929 ± 0.046 | 0.901 ± 0.024 | 0.886 ± 0.048
19 | H0YKT5 and related entries (UniProt Q04726) | 0.975 ± 0.057 | 0.975 ± 0.069 | 0.973 ± 0.077 | 0.919 ± 0.086 | 0.91 ± 0.072 | 0.945 ± 0.068 | 1 ± 0.081 | 0.957 ± 0.056
20 | K7EQB6 and related entries (UniProt P49916) | 1.03 ± 0.034 | 1.06 ± 0.047 | 1.04 ± 0.059 | 1.08 ± 0.041 | 1.15 ± 0.065 | 1.15 ± 0.049 | 1.18 ± 0.049 | 1.17 ± 0.04
21 | H0Y4B0 and related entries (UniProt O43414) | 1.05 ± 0.043 | 1.01 ± 0.067 | 0.945 ± 0.067 | 0.942 ± 0.066 | 0.86 ± 0.076 | 0.943 ± 0.11 | 0.9 ± 0.1 | 0.829 ± 0.13
22 | H0Y2S9 and related entries (UniProt Q6WCQ1) | 0.988 ± 0.14 | 1.08 ± 0.19 | 1.14 ± 0.15 | 1.15 ± 0.26 | 1.13 ± 0.18 | 1.21 ± 0.18 | 1.3 ± 0.23 | 1.29 ± 0.24
23 | H0YKK6 and related entries (UniProt Q06323) | 0.871 ± 0.14 | 0.812 ± 0.062 | 1.04 ± 0.15 | 1.01 ± 0.079 | 0.996 ± 0.11 | 0.991 ± 0.08 | 0.926 ± 0.17 | 1.08 ± 0.2
24 | G8JLB3 and related entries (UniProt Q9Y606) | 0.978 ± 0.041 | 0.945 ± 0.033 | 0.925 ± 0.016 | 0.909 ± 0.026 | 0.936 ± 0.01 | 0.881 ± 0.015 | 0.881 ± 0.053 | 0.886 ± 0.06
25 | H7BXH9 and related entries (UniProt Q8WXB1) | 1.04 ± 0.13 | 1.02 ± 0.12 | 0.885 ± 0.047 | 0.976 ± 0.23 | 0.96 ± 0.17 | 0.869 ± 0.079 | 0.876 ± 0.023 | 0.965 ± 0.078
26 | K7EKL3 and related entries (UniProt P28799) | 1.05 ± 0.1 | 1.04 ± 0.09 | 1.05 ± 0.1 | 1.03 ± 0.059 | 1.01 ± 0.11 | 1.02 ± 0.1 | 1.1 ± 0.061 | 1.05 ± 0.083

Records 23 to 24, reprinted for reference:
Row | Target | NP40-soluble protein abundance (concentration: 0.1mM) | NP40-soluble protein abundance (concentration: 0.5mM) | NP40-soluble protein abundance (concentration: 1mM) | NP40-soluble protein abundance (concentration: 2mM) | NP40-soluble protein abundance (concentration: 4mM) | NP40-soluble protein abundance (concentration: 6mM) | NP40-soluble protein abundance (concentration: 8mM) | NP40-soluble protein abundance (concentration: 10mM)
23 | H0YKK6 and related entries (UniProt Q06323) | 0.871 ± 0.14 | 0.812 ± 0.062 | 1.04 ± 0.15 | 1.01 ± 0.079 | 0.996 ± 0.11 | 0.991 ± 0.08 | 0.926 ± 0.17 | 1.08 ± 0.2
24 | G8JLB3 and related entries (UniProt Q9Y606) | 0.978 ± 0.041 | 0.945 ± 0.033 | 0.925 ± 0.016 | 0.909 ± 0.026 | 0.936 ± 0.01 | 0.881 ± 0.015 | 0.881 ± 0.053 | 0.886 ± 0.06
